Measured values published in publication PMC7782524.
These are yes or no findings as the source states them, for the method shown. In cells and extracts the contact can be indirect.

Target: TP53^R273H (293–393)-FLAG (human) (UniProt P04637)
Assay: co-IP; lysates of H1299 cells transfected with full-length or truncated TP53^R273H-FLAG; IP with anti-FLAG, blot for endogenous BCAR1; 0.1% NP40 lysis buffer, 4 °C

B1: endogenous BCAR1 (breast cancer anti-estrogen resistance 1) (protein, UniProt P56945 1-870)
chain: MNHLNVLAKALYDNVAESPDELSFRKGDIMTVLEQDTQGLDGWWLCSLHGRQGIVPGNRLKILVGMYDKKPAGPGPGPPATPAQPQPGLHAPAPPASQYTPMLPNTYQPQPDSVYLVPTPSKAQQGLYQVPGPSPQFQSPPAKQTSTFSKQTPHHPFPSPATDLYQVPPGPGGPAQDIYQVPPSAGMGHDIYQVPPSMDTRSWEGTKPPAKVVVPTRVGQGYVYEAAQPEQDEYDIPRHLLAPGPQDIYDVPPVRGLLPSQYGQEVYDTPPMAVKGPNGRDPLLEVYDVPPSVEKGLPPSNHHAVYDVPPSVSKDVPDGPLLREETYDVPPAFAKAKPFDPARTPLVLAAPPPDSPPAEDVYDVPPPAPDLYDVPPGLRRPGPGTLYDVPRERVLPPEVADGGVVDSGVYAVPPPAEREAPAEGKRLSASSTGSTRSSQSASSLEVAGPGREPLELEVAVEALARLQQGVSATVAHLLDLAGSAGATGSWRSPSEPQEPLVQDLQAAVAAVQSAVHELLEFARSAVGNAAHTSDRALHAKLSRQLQKMEDVHQTLVAHGQALDAGRGGSGATLEDLDRLVACSRAVPEDAKQLASFLHGNASLLFRRTKATAPGPEGGGTLHPNPTDKTSSIQSRPLPSPPKFTSQDSPDGQYENSEGGWMEDYDYVHLQGKEEFEKTQKELLEKGSITRQGKSQLELQQLKQFERLEQEVSRPIDHDLANWTPAQPLAPGRTGGLGPSDRQLLLFYLEQCEANLTTLTNAVDAFFTAVATNQPPKIFVAHSKFVILSAHKLVFIGDTLSRQAKAADVRSQVTHYSNLLCDLLRGIVATTKAAALQYPSPSAAQDMVERVKELGHSTQQFRRVLGQLAAA
- binding: no binding
